PubChem BioAssay AID504744, Drosophila RNAi Screening Center | 2011

- Purpose: 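Identify dsRNAs that increase or decrease phospho-dAkt after insulin treatment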 (primary screen)
- Cell system: Drosophila Kc167 cells
- Reagent: long dsRNA against Drosophila genes, 250 ng dsRNA per well of a 384-well plate
- Duration: 3 days of knock-down, then overnight serum-free starvation before stimulation
- Treatment: bovine insulin at 387 nM for 10 minutes after 12 h without serum
- Detection: 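In-cell antibody fluorescence for phospho-dAkt in each well over DNA-dye signal, with log2 residuals expressed as z-scores adjusted for cell count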
- Call rule: 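Under insulin, a gene counts as a hit if the average z-score of two replicates lies above 2.5 or below -2.5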
The deposit covers about 23,000 reagents; below is an unselected part of those that have a named target and a result. Of all reagents, 98 (0.43%) were called active. 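Only hit calls are given; the phospho-dAkt signals, z-scores and hit direction were not deposited.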 The numbers tell different reagents against one gene apart. Names joined by + are all predicted targets of the reagent.

target	reagent no.	Call
Vps26 (Vacuolar protein sorting 26)	1	inactive
Ugt37A1 (UDP-glycosyltransferase family 37 member A1)	1	inactive
CG5611	1	inactive
Spn53F (Serpin 53F)	1	inactive
CG4907	1	inactive
loopin-1	1	inactive
Atf3 (Activating transcription factor 3)	1	inactive
phr6-4 ((6-4)-photolyase)	1	inactive
CG3517	1	inactive
CG6345	1	inactive
CG7879	1	inactive
CG7402	1	inactive
JYalpha (retired record) + JYalpha	1	inactive
etaTry (etaTrypsin)	1	inactive
swi2	1	inactive
Arpc1 (Actin-related protein 2/3 complex, subunit 1)	1	inactive
Gr36b (Gustatory receptor 36b)	1	inactive
pon (partner of numb)	1	inactive
CG9518	1	inactive
CG17776	1	inactive
yki (yorkie)	1	inactive
CG42372 + CG30100	1	inactive
CG14852	1	inactive
CG3902	1	inactive
cpo (couch potato)	1	inactive
CG4570	1	inactive
CG4953	1	inactive
ergic53	1	inactive
eater	1	inactive
eater	2	inactive
CG31087	1	inactive
CG32413	1	inactive
rux (roughex)	1	inactive
CG1946	1	inactive
CG7714	1	inactive
TwdlM (TweedleM)	1	inactive
amd (alpha methyl dopa-resistant)	1	inactive
amd (alpha methyl dopa-resistant)	2	inactive
CG17010	1	inactive
CG31098	1	inactive
CG5554	1	inactive
Hs3st-A (Heparan sulfate 3-O sulfotransferase-A)	1	inactive
Hs3st-A (Heparan sulfate 3-O sulfotransferase-A)	2	inactive
Hs3st-A (Heparan sulfate 3-O sulfotransferase-A)	3	inactive
CG34452	1	inactive
CG42535	1	inactive
CDase (Ceramidase)	1	inactive
CG34288	1	inactive
CG15332	1	inactive
Xport-A + Xport-B	1	inactive
CG30413	1	inactive
CG10000	1	inactive
Pmvk (Phosphomevalonate kinase)	1	inactive
CG3999	1	inactive
Snx16 (Sorting nexin 16)	1	inactive
CG10680	1	inactive
trbl (tribbles)	1	inactive
nudE	1	inactive
nudE	2	inactive
miple2 (midkine and pleiotrophin 2)	1	inactive
Fem-1	1	inactive
SLC5A11 (Sodium/solute co-transporter-like 5A11)	1	inactive
ssh (slingshot)	1	inactive
CG12490	1	inactive
Fur1 (Furin 1)	1	inactive
Fur1 (Furin 1)	2	inactive
dcma (decima)	1	inactive
dcma (decima)	2	inactive
Pp2B-14D (Protein phosphatase 2B at 14D)	1	inactive
fzr (fizzy-related)	1	inactive
Zdhhc8 (Zinc finger DHHC-type containing 8)	1	inactive
Zdhhc8 (Zinc finger DHHC-type containing 8)	2	inactive
Cox11 (Cytochrome c oxidase copper chaperone COX11)	1	inactive
CG31848	1	inactive
FoxL1 (Forkhead box L1)	1	inactive

Laid out differently: entries from further up.
target,reagent no.,Call
eater,2,inactive
CG31087,1,inactive
CG32413,1,inactive
rux (roughex),1,inactive
CG1946,1,inactive
CG7714,1,inactive
TwdlM (TweedleM),1,inactive
amd (alpha methyl dopa-resistant),1,inactive
amd (alpha methyl dopa-resistant),2,inactive
CG17010,1,inactive
CG31098,1,inactive
CG5554,1,inactive
Hs3st-A (Heparan sulfate 3-O sulfotransferase-A),1,inactive
Hs3st-A (Heparan sulfate 3-O sulfotransferase-A),2,inactive
Hs3st-A (Heparan sulfate 3-O sulfotransferase-A),3,inactive
CG34452,1,inactive
CG42535,1,inactive
CDase (Ceramidase),1,inactive
CG34288,1,inactive

The list goes on.
target	reagent no.	Call
Reepl1 (Receptor accessory protein like 1)	1	inactive
CG11127	1	inactive
CG30279 (retired record)	1	inactive
bou (boudin)	1	inactive
CG6421	1	inactive
CG7607	1	inactive
CG32681	1	inactive
Atg18b (Autophagy-related 18b)	1	inactive
CG10587	1	inactive
d-cup (davis-cup)	1	inactive
CG7271	1	inactive
slim (scruin like at the midline)	1	inactive
fsd (fates-shifted)	1	inactive
Pp4-19C (Protein phosphatase 19C)	1	inactive
Pp4-19C (Protein phosphatase 19C)	2	inactive
Dyb (Dystrobrevin)	1	inactive
Dyb (Dystrobrevin)	2	inactive
tsh (teashirt)	1	inactive
CG3163	1	inactive
RpL6 (Ribosomal protein L6)	1	inactive
RpL6 (Ribosomal protein L6)	2	inactive
CG1246	1	inactive
Cda4 (Chitin deacetylase-like 4)	1	inactive
Cda4 (Chitin deacetylase-like 4)	2	inactive
Cda4 (Chitin deacetylase-like 4)	3	inactive
CG5126	1	inactive
CG13700	1	inactive
Gr93c (Gustatory receptor 93c)	1	inactive
hbt (headbutt)	1	inactive
CG13837	1	inactive
CG18469	1	inactive
CG1582	1	inactive
CG12672	1	inactive
CG9372	1	inactive
CG10097 + CG10096	1	inactive
CG10097 + CG10096	2	inactive
CG1421	1	inactive
dpr5 (defective proboscis extension response 5)	1	inactive
CR32745 (pseudo)	1	inactive
CG32720	1	inactive
Atac2 (Ada2a-containing complex component 2)	1	inactive
CG43740	1	inactive
RpS28a (Ribosomal protein S28a)	1	inactive
nolo (no long nerve cord)	1	inactive
nolo (no long nerve cord)	2	inactive
nolo (no long nerve cord)	3	inactive
CCHa2 (CCHamide-2)	1	inactive
SmD2 (Small ribonucleoprotein particle protein SmD2)	1	inactive
CSN3 (COP9 signalosome subunit 3)	1	inactive
scyl (scylla)	1	inactive
Tctp (Translationally controlled tumor protein)	1	inactive
shep (alan shepard)	1	inactive
shep (alan shepard)	2	inactive
shep (alan shepard)	3	inactive
Dus3 (Dihydrouridine synthase 3)	1	inactive
cdi (center divider)	1	inactive
Bruce (BIR repeat containing ubiquitin-conjugating enzyme)	1	inactive
CG5157	1	inactive
CG8306	1	inactive
dmt (dalmatian)	1	inactive
CG8152	1	inactive
CG31145	1	inactive
CG31145	2	inactive
CG31145	3	inactive
CG31145	4	inactive
CtsL2 (Cathepsin L2)	1	inactive
Dgk (Diacyl glycerol kinase)	1	inactive
Dgk (Diacyl glycerol kinase)	2	inactive
Dgk (Diacyl glycerol kinase)	3	inactive
Dgk (Diacyl glycerol kinase)	4	inactive
Dgk (Diacyl glycerol kinase)	5	inactive
CG31898	1	inactive
RN-tre (Related to the N terminus of tre oncogene)	1	inactive
Hel89B (Helicase 89B)	1	inactive
Hel89B (Helicase 89B)	2	inactive
CG30121 (retired record)	1	inactive
CG3708	1	inactive
CG33695 + cana	1	inactive
CG33695 + cana	2	inactive
CG13230	1	inactive
Adck5 (aarF domain containing kinase 5)	1	inactive
Acp62F (Accessory gland protein 62F)	1	inactive
